Results: the supplement of paper PMC12823440, “Inhibitors supercharge kinase turnover through native proteolytic circuits” (Nature, 2025)
Where a name gives a salt, the structure may show the parent alone. Some of the results follow. The calls rarely recur for the same compound in another form.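 In K562 cells expressing nanoluciferase-fused kinases, luminescence was recorded at 4 h intervals between 2 and 18 h, normalized as percent of control with DMSO at 100% and a positive control at 0%. A significant (2 sigma) signal drop marks a time point as decreased. The authors' rule for a hit is not shown and takes in more than the number of time points.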

Protein sequences, listed by entry. Tags and fused reporters are not part of them.
UniProt P50750, whole entry: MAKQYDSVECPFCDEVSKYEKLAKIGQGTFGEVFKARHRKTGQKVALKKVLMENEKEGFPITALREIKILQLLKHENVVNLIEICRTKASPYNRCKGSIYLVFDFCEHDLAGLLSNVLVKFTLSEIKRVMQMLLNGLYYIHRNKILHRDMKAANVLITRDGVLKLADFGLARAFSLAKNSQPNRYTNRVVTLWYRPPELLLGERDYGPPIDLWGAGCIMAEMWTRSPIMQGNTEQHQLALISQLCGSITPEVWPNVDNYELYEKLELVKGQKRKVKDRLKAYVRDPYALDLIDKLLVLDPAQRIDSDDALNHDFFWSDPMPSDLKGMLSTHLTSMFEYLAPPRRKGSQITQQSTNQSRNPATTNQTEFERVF

Each molecule was assayed against CDK9 (UniProt P50750) (assay: number of time points (of 4; 2 h point missing) at which kinase-Nluc abundance scored as decreased, DMSO-normalised (count); higher = more persistent destabilization). Settings: K562; 2-18 h.

SMILES | number of time points
O=C(O)c1cc(N(Cc2ccccc2O)Cc2ccccc2O)ccc1O [Lavendustin B] (10 µM) | 0
Cc1ccc2c(Nc3cccc(Cl)c3F)nccc2c1NC(=O)c1csc2c(N)ncnc12 [Belvarafenib] (10 µM) | 0
Cn1cc(-c2cnc3cnn(S(=O)(=O)c4cnc5ccc(-c6cnn(C)c6)cn45)c3c2)cn1 [Glumetinib] (10 µM) | 0
CNC(=O)c1ccccc1Oc1nc(Nc2cc(OC)c(OC)c(OC)c2)ncc1Br (2.5 µM) | 0
COc1cc(-c2cn[nH]c2)ccc1C(=O)Nc1ccc2c(c1)CCNCC2 (10 µM) | 0
COCCNc1cc(NC(=O)N2CCCc3cc(CN4CCN(C)CC4=O)c(C=O)nc32)ncc1C#N [Roblitinib] (10 µM) | 0
CC(C)c1cc(/C=C(\C#N)C(=O)NCCCc2ccccc2)cc(C(C)C)c1O (10 µM) | 1
C=CCc1ccc(O)c(-c2ccc(O)c(CC=C)c2)c1 [Honokiol] (10 µM) | 0
CNc1nc(Nc2cn(C(C)(C)C#N)nc2C)ncc1C(F)(F)F (10 µM) | 0
C[C@@H]1CCNC(=O)c2cc3ccc(C(=O)Nc4nc5ccccc5n4CCCN(C)C)cc3n21 (10 µM) | 0
CCc1cncnc1N1CCN(Cc2nc3ccc(C(F)(F)F)cc3[nH]2)CC1 (10 µM) | 0
CCN(CC)CCC(=O)N1N=C(c2c(-c3ccccc3)c3cc(Br)ccc3[nH]c2=O)CC1c1ccc(Br)cc1 (stereo not drawn) (2.5 µM) | 0
Nc1cccc(-c2cc3c(Oc4cccc(O)c4)ncnc3[nH]2)c1 (10 µM) | 2
CCc1cccc(CC)c1NC(=O)N1Cc2[nH]nc(NC(=O)c3ccc(N4CCN(C)CC4)cc3)c2C1 (2.5 µM) | 1
COc1ccccc1C(=O)/C=C/c1ccccc1C(=O)O (10 µM) | 0
Cc1c(-c2ccc(C(N)=O)c3[nH]c4cc(C(C)(C)O)ccc4c23)cccc1-n1cnc2ccccc2c1=O (2.5 µM) | 0
O=C1NC(=O)/C(=C/c2ccc3nccc(-c4ccncc4)c3c2)S1 (10 µM) | 0

SMILES | number of time points
O=[N+]([O-])c1ccc(Nc2nc(N3CCOCC3)nc(N3CCOCC3)n2)cc1 (10 µM) | 0
Cc1cc(C)nc(NS(=O)(=O)c2ccc(NC(=S)NC(=O)COc3ccc(Br)cc3Cl)cc2)n1 (2.5 µM) | 0
CCCNC(=O)Nc1ccc(Oc2ncnc3cc(OC)c(OC)cc23)cc1Cl (2.5 µM) | 0
CNC(=O)c1cc2c(Oc3ccc(NC(=S)NC(=O)Cc4ccccc4)cc3F)ccnc2cc1OC [TAS-115 mesylate] (10 µM) | 0
Cn1cc2cc(C(F)(F)c3nnc4ccc(-c5cnn(C6CC6)c5)nn34)c(F)cc2n1 [Bozitinib] (10 µM) | 0
COc1cc2ncnc(Nc3ccccc3)c2cc1OC (10 µM) | 0
Cc1cccc(-c2[nH]c(C(C)(C)C)nc2-c2ccc3nccnc3c2)n1 (10 µM) | 0
Oc1cc(O)c2c(c1)OC1(c3ccc(O)c(O)c3)Oc3cc(O)c4c(c3C2C1O)OC(c1ccc(O)c(O)c1)C(O)C4 (stereo not drawn) [Procyanidin A1] (10 µM) | 0
CC(C)C[C@@H](C(=O)Nc1ccn(C[C@@H](O)CO)n1)N1CC(Oc2ccccc2Cl)=CC1=O [Dorzagliatin] (10 µM) | 0
C=CC(=O)Nc1cc(Nc2nccc(-n3cc(CN(C)C)c(-c4ccccc4)n3)n2)c(OC)cc1N1CCOCC1 [Lazertinib] (10 µM) | 0
CC(=O)c1c(C)c2cnc(Nc3ccc(N4CCN(C(=O)CNc5cccc6c5C(=O)N(C5CCC(=O)NC5=O)C6=O)CC4)cn3)nc2n(C2CCCC2)c1=O (stereo not drawn) (10 µM) | 0
CC(C)(C)n1nc(Cc2ccccc2O)c2c(N)ncnc21 (10 µM) | 0
c1ccc(-c2nc(=NCCN3CCOCC3)sn2-c2ccccc2)cc1 [VP3.15 (dihydrobromide)] (10 µM) | 0
NC(=O)N1CCC(CC(=O)N2CCC([C@H]3c4ncc(Br)cc4CCc4cc(Cl)cc(Br)c43)CC2)CC1 [Lonafarnib] (2.5 µM) | 0
O=c1cc(-c2cccc3c2Sc2ccccc2S3)oc(N2CCOCC2)c1 (10 µM) | 0
CN1CC[C@@H](c2c(O)cc(O)c3c(=O)cc(-c4ccc(C(F)(F)F)cc4Cl)oc23)[C@@H]1CO [Voruciclib (hydrochloride)] (10 µM) | 0

Single values from the results shown:
number of time points with Cc1cccc(-c2[nH]c(C(C)(C)C)nc2-c2ccc3nccnc3c2)n1 (10 µM) reads 0
number of time points with CNC(=O)c1cc2c(Oc3ccc(NC(=S)NC(=O)Cc4ccccc4)cc3F)ccnc2cc1OC [TAS-115 mesylate] (10 µM) reads 0
